Assay results published in article PMC10285406.
Results are given in words; binding and its absence hold for the method and conditions named. Some binding calls cover weakened binding; strength is not graded here. One block for each molecule: values may come before it.

Chains of the proteins cited; added tags and fusions are not shown. Residues count along the entry.
UniProt Q9Y6R7, residues 24-5405: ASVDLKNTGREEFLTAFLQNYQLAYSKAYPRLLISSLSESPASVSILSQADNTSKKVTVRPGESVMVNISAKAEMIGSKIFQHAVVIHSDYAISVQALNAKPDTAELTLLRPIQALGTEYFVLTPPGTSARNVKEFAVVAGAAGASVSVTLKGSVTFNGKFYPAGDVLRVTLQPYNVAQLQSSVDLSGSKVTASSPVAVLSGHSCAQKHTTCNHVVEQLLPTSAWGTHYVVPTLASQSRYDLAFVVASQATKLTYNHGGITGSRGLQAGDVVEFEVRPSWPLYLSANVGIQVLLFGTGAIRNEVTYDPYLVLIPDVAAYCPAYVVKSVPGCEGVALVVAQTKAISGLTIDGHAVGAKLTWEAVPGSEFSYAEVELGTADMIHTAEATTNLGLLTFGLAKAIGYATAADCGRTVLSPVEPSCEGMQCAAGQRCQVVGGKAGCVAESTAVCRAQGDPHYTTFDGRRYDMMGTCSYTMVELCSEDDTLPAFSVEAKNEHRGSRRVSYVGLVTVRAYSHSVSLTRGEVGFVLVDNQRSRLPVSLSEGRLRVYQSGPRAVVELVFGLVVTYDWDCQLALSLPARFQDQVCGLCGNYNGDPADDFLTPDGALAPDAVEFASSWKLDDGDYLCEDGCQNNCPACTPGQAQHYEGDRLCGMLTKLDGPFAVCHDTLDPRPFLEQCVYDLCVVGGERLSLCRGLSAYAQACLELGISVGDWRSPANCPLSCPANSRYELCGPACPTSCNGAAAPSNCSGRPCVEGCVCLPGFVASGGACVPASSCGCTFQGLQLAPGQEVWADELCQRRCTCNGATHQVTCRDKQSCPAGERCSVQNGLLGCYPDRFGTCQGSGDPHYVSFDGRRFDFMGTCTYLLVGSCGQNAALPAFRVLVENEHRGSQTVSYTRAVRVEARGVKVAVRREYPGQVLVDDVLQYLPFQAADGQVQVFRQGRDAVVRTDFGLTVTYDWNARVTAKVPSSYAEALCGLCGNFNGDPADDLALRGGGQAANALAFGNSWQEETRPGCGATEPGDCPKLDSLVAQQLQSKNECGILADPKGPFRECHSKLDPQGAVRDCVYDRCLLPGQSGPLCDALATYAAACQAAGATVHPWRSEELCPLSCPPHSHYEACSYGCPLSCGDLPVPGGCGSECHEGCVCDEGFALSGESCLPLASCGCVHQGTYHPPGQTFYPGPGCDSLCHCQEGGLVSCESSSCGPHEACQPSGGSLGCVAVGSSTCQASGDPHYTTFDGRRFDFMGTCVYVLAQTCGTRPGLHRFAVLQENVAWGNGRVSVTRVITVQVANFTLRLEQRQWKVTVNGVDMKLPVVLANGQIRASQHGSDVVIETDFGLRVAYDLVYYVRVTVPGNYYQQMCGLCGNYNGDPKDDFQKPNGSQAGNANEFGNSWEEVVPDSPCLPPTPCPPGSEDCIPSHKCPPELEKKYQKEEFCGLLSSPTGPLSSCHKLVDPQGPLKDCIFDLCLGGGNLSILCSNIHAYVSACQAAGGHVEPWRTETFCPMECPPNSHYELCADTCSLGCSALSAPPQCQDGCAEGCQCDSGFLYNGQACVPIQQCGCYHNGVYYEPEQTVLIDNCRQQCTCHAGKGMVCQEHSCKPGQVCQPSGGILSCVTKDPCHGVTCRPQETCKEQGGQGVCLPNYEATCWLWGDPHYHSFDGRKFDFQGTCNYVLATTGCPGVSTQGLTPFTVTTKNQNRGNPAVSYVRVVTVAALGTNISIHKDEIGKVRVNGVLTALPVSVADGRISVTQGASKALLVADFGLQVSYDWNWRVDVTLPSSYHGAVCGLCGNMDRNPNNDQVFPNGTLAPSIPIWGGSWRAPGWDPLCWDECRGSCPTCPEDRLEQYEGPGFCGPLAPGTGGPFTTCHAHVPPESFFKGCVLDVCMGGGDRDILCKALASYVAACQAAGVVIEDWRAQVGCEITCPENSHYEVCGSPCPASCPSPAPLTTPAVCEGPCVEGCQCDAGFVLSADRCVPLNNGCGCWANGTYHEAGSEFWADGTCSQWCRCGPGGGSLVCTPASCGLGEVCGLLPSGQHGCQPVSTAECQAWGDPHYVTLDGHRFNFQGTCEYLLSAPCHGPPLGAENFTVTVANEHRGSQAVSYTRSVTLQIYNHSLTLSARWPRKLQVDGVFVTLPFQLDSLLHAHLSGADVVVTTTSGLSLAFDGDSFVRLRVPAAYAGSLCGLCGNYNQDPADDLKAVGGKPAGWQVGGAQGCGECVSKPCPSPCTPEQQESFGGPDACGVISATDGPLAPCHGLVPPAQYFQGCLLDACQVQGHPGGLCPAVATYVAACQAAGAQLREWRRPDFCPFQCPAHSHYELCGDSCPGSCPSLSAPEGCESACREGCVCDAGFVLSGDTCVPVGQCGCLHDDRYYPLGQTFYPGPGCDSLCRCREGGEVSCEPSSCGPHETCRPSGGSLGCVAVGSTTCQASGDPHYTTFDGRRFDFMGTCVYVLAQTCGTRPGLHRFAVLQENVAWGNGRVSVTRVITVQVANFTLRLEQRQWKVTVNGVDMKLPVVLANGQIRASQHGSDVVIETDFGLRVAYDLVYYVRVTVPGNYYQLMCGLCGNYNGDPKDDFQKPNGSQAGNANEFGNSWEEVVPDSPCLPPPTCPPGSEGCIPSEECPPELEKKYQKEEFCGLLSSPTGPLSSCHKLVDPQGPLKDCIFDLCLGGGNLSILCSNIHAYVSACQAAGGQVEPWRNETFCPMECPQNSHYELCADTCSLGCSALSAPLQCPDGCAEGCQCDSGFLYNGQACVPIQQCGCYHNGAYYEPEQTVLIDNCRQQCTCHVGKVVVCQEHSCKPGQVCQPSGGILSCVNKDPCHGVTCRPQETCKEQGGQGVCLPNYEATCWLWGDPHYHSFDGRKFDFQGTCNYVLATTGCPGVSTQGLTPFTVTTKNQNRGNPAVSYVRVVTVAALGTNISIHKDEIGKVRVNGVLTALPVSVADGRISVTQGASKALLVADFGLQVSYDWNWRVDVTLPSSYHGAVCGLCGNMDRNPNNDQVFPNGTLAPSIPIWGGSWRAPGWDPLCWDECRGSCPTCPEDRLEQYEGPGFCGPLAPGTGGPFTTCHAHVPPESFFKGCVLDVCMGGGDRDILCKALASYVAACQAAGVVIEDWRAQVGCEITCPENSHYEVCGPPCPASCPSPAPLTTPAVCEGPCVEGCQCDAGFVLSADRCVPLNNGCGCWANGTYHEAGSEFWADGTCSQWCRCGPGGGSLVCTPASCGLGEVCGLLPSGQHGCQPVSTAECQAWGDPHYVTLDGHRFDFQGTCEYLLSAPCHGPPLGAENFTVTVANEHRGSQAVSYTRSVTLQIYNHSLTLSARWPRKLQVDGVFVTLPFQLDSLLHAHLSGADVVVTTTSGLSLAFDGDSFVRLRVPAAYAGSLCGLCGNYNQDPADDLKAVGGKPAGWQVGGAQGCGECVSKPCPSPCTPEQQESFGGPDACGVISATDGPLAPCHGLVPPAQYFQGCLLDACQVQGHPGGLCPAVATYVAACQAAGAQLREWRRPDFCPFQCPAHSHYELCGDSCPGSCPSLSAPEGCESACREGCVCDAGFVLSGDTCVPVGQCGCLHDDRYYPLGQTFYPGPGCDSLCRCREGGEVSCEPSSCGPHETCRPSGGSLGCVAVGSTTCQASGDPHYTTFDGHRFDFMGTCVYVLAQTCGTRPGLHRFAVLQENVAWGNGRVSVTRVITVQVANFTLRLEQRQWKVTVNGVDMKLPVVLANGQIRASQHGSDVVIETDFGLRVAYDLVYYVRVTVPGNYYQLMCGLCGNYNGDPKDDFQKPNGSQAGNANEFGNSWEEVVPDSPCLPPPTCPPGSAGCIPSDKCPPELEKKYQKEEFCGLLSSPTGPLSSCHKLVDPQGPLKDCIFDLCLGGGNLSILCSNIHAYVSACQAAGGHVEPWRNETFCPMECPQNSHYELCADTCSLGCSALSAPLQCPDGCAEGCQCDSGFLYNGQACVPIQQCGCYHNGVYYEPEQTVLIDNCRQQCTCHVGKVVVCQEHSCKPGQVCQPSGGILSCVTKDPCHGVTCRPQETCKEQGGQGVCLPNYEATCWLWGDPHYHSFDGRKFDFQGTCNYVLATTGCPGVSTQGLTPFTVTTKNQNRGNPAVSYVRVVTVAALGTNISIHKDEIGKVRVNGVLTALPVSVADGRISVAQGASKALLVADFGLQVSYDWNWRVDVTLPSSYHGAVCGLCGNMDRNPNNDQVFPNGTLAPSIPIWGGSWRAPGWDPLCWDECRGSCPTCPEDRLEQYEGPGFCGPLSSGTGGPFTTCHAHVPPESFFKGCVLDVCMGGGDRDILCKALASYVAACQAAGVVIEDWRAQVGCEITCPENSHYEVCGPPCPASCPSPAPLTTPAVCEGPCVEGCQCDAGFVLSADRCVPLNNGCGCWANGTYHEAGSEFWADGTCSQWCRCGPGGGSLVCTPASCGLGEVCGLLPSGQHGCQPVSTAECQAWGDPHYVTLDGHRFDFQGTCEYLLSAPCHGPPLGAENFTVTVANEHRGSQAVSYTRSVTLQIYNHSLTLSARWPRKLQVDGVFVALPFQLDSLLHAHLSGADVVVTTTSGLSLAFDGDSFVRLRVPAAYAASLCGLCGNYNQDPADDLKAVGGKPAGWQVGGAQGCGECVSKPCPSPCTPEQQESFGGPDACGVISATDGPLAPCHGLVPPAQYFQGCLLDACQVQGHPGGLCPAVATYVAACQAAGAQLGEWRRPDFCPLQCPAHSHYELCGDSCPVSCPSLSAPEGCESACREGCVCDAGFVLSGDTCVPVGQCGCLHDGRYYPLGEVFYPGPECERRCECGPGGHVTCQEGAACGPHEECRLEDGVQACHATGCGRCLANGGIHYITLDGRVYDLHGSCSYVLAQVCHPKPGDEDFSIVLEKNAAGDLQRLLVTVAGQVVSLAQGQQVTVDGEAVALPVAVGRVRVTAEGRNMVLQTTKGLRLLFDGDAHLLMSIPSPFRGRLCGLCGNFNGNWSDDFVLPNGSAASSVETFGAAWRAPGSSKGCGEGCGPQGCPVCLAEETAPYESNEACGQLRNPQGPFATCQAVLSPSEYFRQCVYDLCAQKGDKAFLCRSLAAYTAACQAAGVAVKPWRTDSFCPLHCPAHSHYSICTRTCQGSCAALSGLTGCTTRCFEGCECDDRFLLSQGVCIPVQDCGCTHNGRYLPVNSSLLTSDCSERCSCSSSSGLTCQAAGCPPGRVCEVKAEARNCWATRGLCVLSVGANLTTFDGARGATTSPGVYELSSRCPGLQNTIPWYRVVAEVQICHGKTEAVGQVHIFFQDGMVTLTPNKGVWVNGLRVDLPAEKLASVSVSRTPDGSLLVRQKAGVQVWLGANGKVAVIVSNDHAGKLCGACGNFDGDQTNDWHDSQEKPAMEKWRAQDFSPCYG

Experiments:
[1] = target: MUC2 mucin (Mucin-2) (human (endogenous in LS174T)) (UniProt Q02817); assay: SEC; Sepharose 4B column chromatography of native secreted mucus from LS174T spent culture media (Tris-HCl buffer, pH 8.0, 4 °C); fractions (V0, F1-F3) run on SDS-PAGE under reducing and non-reducing conditions and Western-blotted for FCGBP, glycosylated MUC2 and CLCA1
[2] = target: IgGFc-binding protein (FCGBP) (human (endogenous in LS174T)) (UniProt Q9Y6R7); assay: as above

- binding [1]: binds
Molecule: IgGFc-binding protein (FCGBP) (from UniProt Q9Y6R7 24-5405)

- binding [2]: binds
- binding [1]: binds
B1: calcium-activated chloride channel regulator 1 (CLCA1) (protein, UniProt A8K7I4 22-914)
chain: NSLIQLNNNGYEGIVVAIDPNVPEDETLIQQIKDMVTQASLYLLEATGKRFYFKNVAILIPETWKTKADYVRPKLETYKNADVLVAESTPPGNDEPYTEQMGNCGEKGERIHLTPDFIAGKKLAEYGPQGRAFVHEWAHLRWGVFDEYNNDEKFYLSNGRIQAVRCSAGITGTNVVKKCQGGSCYTKRCTFNKVTGLYEKGCEFVLQSRQTEKASIMFAQHVDSIVEFCTEQNHNKEAPNKQNQKCNLRSTWEVIRDSEDFKKTTPMTTQPPNPTFSLLQIGQRIVCLVLDKSGSMATGNRLNRLNQAGQLFLLQTVELGSWVGMVTFDSAAHVQNELIQINSGSDRDTLAKRLPAAASGGTSICSGLRSAFTVIRKKYPTDGSEIVLLTDGEDNTISGCFNEVKQSGAIIHTVALGPSAAQELEELSKMTGGLQTYASDQVQNNGLIDAFGALSSGNGAVSQRSIQLESKGLTLQNSQWMNGTVIVDSTVGKDTLFLITWTMQPPQILLWDPSGQKQGGFVVDKNTKMAYLQIPGIAKVGTWKYSLQASSQTLTLTVTSRASNATLPPITVTSKTNKDTSKFPSPLVVYANIRQGASPILRASVTALIESVNGKTVTLELLDNGAGADATKDDGVYSRYFTTYDTNGRYSVKVRALGGVNAARRRVIPQQSGALYIPGWIENDEIQWNPPRPEINKDDVQHKQVCFSRTSSGGSFVASDVPNAPIPDLFPPGQITDLKAEIHGGSLINLTWTAPGDDYDHGTAHKYIIRISTSILDLRDKFNESLQVNTTALIPKEANSEEVFLFKPENITFENGTDLFIAIQAVDKVDLKSEISNIARVSLFIPPQTPPETPSPDETSAPCPNIHINSTIPGIHILKIMWKWIGELQLSIA
